Here are results for one substance from article PMC6916335.

The chains behind the UniProt entries cited, without tags or fusion partners. Residues count along the entry.
UniProt P36895, residues 24-532: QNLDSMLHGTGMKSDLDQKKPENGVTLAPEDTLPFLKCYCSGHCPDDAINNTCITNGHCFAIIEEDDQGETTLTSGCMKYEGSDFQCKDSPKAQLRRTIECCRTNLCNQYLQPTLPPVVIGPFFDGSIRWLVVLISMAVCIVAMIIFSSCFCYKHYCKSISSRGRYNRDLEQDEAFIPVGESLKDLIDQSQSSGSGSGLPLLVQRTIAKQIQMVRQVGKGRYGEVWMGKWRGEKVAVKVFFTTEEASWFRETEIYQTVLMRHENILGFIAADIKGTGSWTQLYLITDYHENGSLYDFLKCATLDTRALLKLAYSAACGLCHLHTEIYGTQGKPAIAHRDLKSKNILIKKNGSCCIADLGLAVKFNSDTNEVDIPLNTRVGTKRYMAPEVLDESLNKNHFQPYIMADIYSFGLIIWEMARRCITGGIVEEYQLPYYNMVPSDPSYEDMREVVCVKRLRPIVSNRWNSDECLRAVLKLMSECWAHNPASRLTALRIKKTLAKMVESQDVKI
UniProt P16110: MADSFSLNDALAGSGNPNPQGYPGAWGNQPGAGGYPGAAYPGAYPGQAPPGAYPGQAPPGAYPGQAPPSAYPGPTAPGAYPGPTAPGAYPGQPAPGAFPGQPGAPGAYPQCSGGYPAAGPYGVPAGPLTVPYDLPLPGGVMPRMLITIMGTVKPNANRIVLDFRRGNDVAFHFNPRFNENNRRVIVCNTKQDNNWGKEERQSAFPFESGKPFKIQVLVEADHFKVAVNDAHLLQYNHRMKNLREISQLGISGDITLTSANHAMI

This experiment deals with Flag‐tagged bone morphogenetic protein receptor one alpha (BMPR1α) (mouse (from the plasmid's name mBMPR1α)) (UniProt P36895). As to the kind of experiment: co-IP; HEK293T cells transfected with Gal‐3, Flag‐BMPR1α and/or HA‐BMPR2, harvested 48 hr post-transfection; 200 μg protein, 1 μg monoclonal antibody (anti‐Flag, anti‐HA or anti‐Gal‐3) and protein G microbeads (μMACS), 30 min on ice; western blot. Background: In western blotting, separated proteins are transferred to a membrane and probed.

No constants are given. Whether binding was seen depends on the method and setting. In cells and extracts the contact can be indirect. Some entries that bind do so weakly or less than the wild type.

Take Galectin‐3 (from UniProt P16110 1-264): the binding result was “binds”.
